Literature values as cited in patent US20260337245A1, “POLYPEPTIDE OR ANALOG THEREOF AND USE THEREOF” (Shenzhen Bay Laboratory, priority 2024, published 2026).
Part of at least one peptide drawing is inferred or uncertain, most often the ends.

Conditions: background, in words; cited from earlier work

CC(C)C[C@H](NC(=O)[C@H](CCCCN)NC(=O)CNC(=O)[C@H](CC(C)C)NC(=O)[C@@H](NC(=O)[C@@H]1CSSC[C@H](N)C(=O)N[C@@H](CO)C(=O)N[C@@H](CC(N)=O)C(=O)N[C@@H](CC(C)C)C(=O)N[C@@H](CO)C(=O)N[C@@H]([C@@H](C)O)C(=O)N1)C(C)C)C(=O)N[C@@H](CO)C(=O)N[C@@H](CCC(N)=O)C(=O)N[C@@H](CCC(=O)O)C(=O)N[C@@H](CC(C)C)C(=O)N[C@@H](Cc1c[nH]cn1)C(=O)N[C@@H](CCCCN)C(=O)N[C@@H](CC(C)C)C(=O)N[C@@H](CCC(N)=O)C(=O)N[C@H](C(=O)N[C@@H](Cc1ccc(O)cc1)C(=O)N1CCC[C@H]1C(=O)N[C@@H](CCCNC(=N)N)C(=O)N[C@H](C(=O)N[C@@H](CC(N)=O)C(=O)N[C@H](C(=O)NCC(=O)N[C@@H](CO)C(=O)NCC(=O)N[C@H](C(=O)N1CCC[C@H]1C(N)=O)[C@@H](C)O)[C@@H](C)O)[C@@H](C)O)[C@@H](C)O [sCT]
aggregation and precipitation: prone to aggregation and precipitation
